PubChem BioAssay AID686938 | Drosophila RNAi Screening Center | 2013
Purpose: 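Fly genes required for calcium entry once internal stores are emptied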 (primary screen). System: Drosophila S2R+ cells. Reagents: long dsRNA against Drosophila genes, about 0.25 µg dsRNA per well, roughly 10,000 cells. Duration: 5 days of knock-down before the calcium assay. Conditions: thapsigargin (SERCA pump blocker) to empty calcium stores; entry signal taken 4 min after adding it. Measurement: 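Duplicate raw fluo-4 intensities per well from a plate reader, at rest and four minutes after thapsigargin emptied calcium stores; entry-to-rest ratio filled for only some wells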. Direction: calcium entry signal: higher = stronger calcium signal after store depletion; entry to resting ratio: higher = more calcium entry relative to resting level; resting calcium signal: higher = higher resting calcium signal. Active means: 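Hit if the duplicate-averaged plate z-score for entry over resting signal is under −3; wells with weak total dye signal (Fmax z < −2) or more than 5 off-targets removed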. Meaning of the calls: active = strongly reduced calcium entry; inactive = no strong reduction.
The screen tested about 23,000 reagents; below is a random part of those that have a named target and a result. In the full data, 75 (0.33%) are marked active. 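Raw plate signals without normalisation; calls rest on plate z-scores that were not deposited; ratio present for only 364 wells.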 A plus sign joins genes that one reagent is predicted to hit. Reagent sequences are not shown. Not stated in the record: the dose of the treatment.

Gene | dsRNA | calcium entry signal, replicate 1 (fluorescence units) | calcium entry signal, replicate 2 (fluorescence units) | entry to resting ratio | resting calcium signal, replicate 1 (fluorescence units) | resting calcium signal, replicate 2 (fluorescence units) | outcome
CG4293 (GeneID 31001) | DRSC18557 | 4.58e7 | 5.31e7 | – | 2.12e7 | 2.40e7 | inactive
CG43052 (GeneID 12798214) | DRSC03059 | 4.65e7 | 3.75e7 | – | 2.12e7 | 1.73e7 | inactive
CG14957 (GeneID 38386) | DRSC08416 | 3.04e7 | 2.77e7 | – | 2.06e7 | 1.41e7 | inactive
CG31206 (GeneID 318627) | DRSC13388 | 5.77e7 | 3.84e7 | – | 2.87e7 | 2.00e7 | inactive
CG16775 (GeneID 39993) | DRSC10225 | 3.94e7 | 4.75e7 | – | 1.81e7 | 1.63e7 | inactive
Jarid2 (GeneID 39103) | DRSC10372 | 4.57e7 | 4.29e7 | – | 3.21e7 | 1.87e7 | inactive
CG7914 (GeneID 32907) | DRSC20068 | 5.50e7 | 4.32e7 | – | 2.55e7 | 1.86e7 | inactive
CG7304 (GeneID 39713) | DRSC10804 | 3.51e7 | 5.12e7 | – | 1.76e7 | 2.22e7 | inactive
CG13699 (GeneID 40008) | DRSC10048 | 3.88e7 | 7.07e7 | – | 1.94e7 | 2.61e7 | inactive
CG33341 (GeneID 2768683) | DRSC22887 | 4.19e7 | 3.99e7 | – | 2.52e7 | 1.84e7 | inactive
Naa30A (GeneID 31079) | DRSC18583 | 3.34e7 | 3.70e7 | – | 1.77e7 | 1.97e7 | inactive
Naa30A (GeneID 31079) | DRSC23214 | 3.97e7 | 4.01e7 | – | 2.05e7 | 1.93e7 | inactive
Nup153 (GeneID 32630) | DRSC19904 | 1.94e7 | 3.16e7 | – | 1.18e7 | 1.80e7 | inactive
CG1951 (GeneID 43423) | DRSC15403 | 3.08e7 | 3.08e7 | – | 1.37e7 | 1.55e7 | inactive
CG33285 (GeneID 2768988) | DRSC11463 | 3.81e7 | 3.89e7 | – | 1.84e7 | 1.82e7 | inactive
CG5274 (GeneID 40257) | DRSC11774 | 4.09e7 | 4.27e7 | – | 1.97e7 | 3.08e7 | inactive
CG14864 (GeneID 41846) | DRSC14987 | 3.99e7 | 5.06e7 | – | 2.17e7 | 7.96e7 | inactive
Syx1A (GeneID 42854) | DRSC15359 | 3.80e7 | 3.19e7 | – | 2.31e7 | 1.78e7 | inactive
Syx1A (GeneID 42854) | DRSC21554 | 3.00e7 | 3.31e7 | – | 1.84e7 | 2.38e7 | active
CG8646 (GeneID 36394) | DRSC07230 | 3.33e7 | 4.92e7 | – | 1.88e7 | 2.18e7 | inactive
CG11342 (GeneID 38538) | DRSC08175 | 2.07e7 | 3.26e7 | – | 9.76e6 | 1.26e7 | inactive
wdn (GeneID 43398) | DRSC17095 | 3.80e7 | 4.18e7 | – | 1.86e7 | 1.94e7 | inactive
Spindly (GeneID 33578) | DRSC00430 | 2.45e7 | 3.51e7 | – | 1.60e7 | 1.91e7 | inactive

Next part; the last 8 above are carried over.
Gene | dsRNA | calcium entry signal, replicate 1 (fluorescence units) | calcium entry signal, replicate 2 (fluorescence units) | entry to resting ratio | resting calcium signal, replicate 1 (fluorescence units) | resting calcium signal, replicate 2 (fluorescence units) | outcome
CG5274 (GeneID 40257) | DRSC11774 | 4.09e7 | 4.27e7 | – | 1.97e7 | 3.08e7 | inactive
CG14864 (GeneID 41846) | DRSC14987 | 3.99e7 | 5.06e7 | – | 2.17e7 | 7.96e7 | inactive
Syx1A (GeneID 42854) | DRSC15359 | 3.80e7 | 3.19e7 | – | 2.31e7 | 1.78e7 | inactive
Syx1A (GeneID 42854) | DRSC21554 | 3.00e7 | 3.31e7 | – | 1.84e7 | 2.38e7 | active
CG8646 (GeneID 36394) | DRSC07230 | 3.33e7 | 4.92e7 | – | 1.88e7 | 2.18e7 | inactive
CG11342 (GeneID 38538) | DRSC08175 | 2.07e7 | 3.26e7 | – | 9.76e6 | 1.26e7 | inactive
wdn (GeneID 43398) | DRSC17095 | 3.80e7 | 4.18e7 | – | 1.86e7 | 1.94e7 | inactive
Spindly (GeneID 33578) | DRSC00430 | 2.45e7 | 3.51e7 | – | 1.60e7 | 1.91e7 | inactive
RabGGTa (GeneID 40617) | DRSC12189 | 2.53e7 | 2.47e7 | – | 1.05e7 | 1.14e7 | inactive
CG15812 (GeneID 38379) | DRSC08479 | 3.51e7 | 2.86e7 | – | 2.04e7 | 1.52e7 | inactive
dsb (GeneID 38252) | DRSC08407 | 1.81e7 | 2.74e7 | – | 1.18e7 | 1.42e7 | inactive
dsb (GeneID 38252) | DRSC08542 | 2.64e7 | 3.14e7 | – | 1.42e7 | 1.49e7 | inactive
neur + asRNA:CR31429 | DRSC17013 | 3.27e7 | 3.81e7 | – | 1.44e7 | 1.73e7 | inactive
His3.3A (GeneID 33736) | DRSC03343 | 2.07e7 | 2.00e7 | – | 1.24e7 | 1.19e7 | inactive
Cp7Fb (GeneID 31785) | DRSC18034 | 3.25e7 | 4.67e7 | – | 1.73e7 | 2.17e7 | inactive
CtsL2 (GeneID 36531) | DRSC06978 | 3.73e7 | 3.05e7 | – | 1.65e7 | 1.46e7 | inactive
CG10651 (GeneID 35303) | DRSC02086 | 3.80e7 | 4.52e7 | – | 1.99e7 | 2.06e7 | inactive
CG11286 (GeneID 40919) | DRSC14293 | 3.87e7 | 2.59e7 | – | 1.86e7 | 1.30e7 | inactive
CG42372 + CG30100 | DRSC05602 | 1.52e7 | 5.05e7 | – | 7.87e6 | 2.96e7 | inactive
CG13919 (GeneID 38200) | DRSC08388 | 3.71e7 | 5.08e7 | – | 1.90e7 | 2.07e7 | inactive
CG1246 (GeneID 38330) | DRSC08275 | 3.80e7 | 3.93e7 | – | 1.93e7 | 1.73e7 | inactive
CG4511 (GeneID 41305) | DRSC15589 | 4.06e7 | 3.53e7 | – | 2.01e7 | 1.83e7 | inactive
ApepP (GeneID 35029) | DRSC01866 | 4.58e7 | – | – | 2.26e7 | – | inactive
Rbp1 (GeneID 41294) | DRSC16817 | 4.99e7 | 6.11e7 | – | 1.89e7 | 2.57e7 | inactive
CG31678 (GeneID 35327) | DRSC02618 | 2.49e7 | – | – | 1.42e7 | – | inactive
CG31678 (GeneID 35327) | DRSC02619 | 4.92e7 | 6.37e7 | – | 2.45e7 | 2.60e7 | inactive
Lk (GeneID 47746) | DRSC10022 | 5.35e7 | 6.13e7 | – | 2.38e7 | 2.62e7 | inactive
CG34302 (GeneID 5740537) | DRSC12751 | 3.37e7 | 3.86e7 | – | 1.69e7 | 1.79e7 | inactive
Dok (GeneID 31667) | DRSC18204 | 3.61e7 | 4.04e7 | – | 1.75e7 | 1.82e7 | inactive
CG14797 + CG32809 | DRSC18562 | 3.98e7 | 4.34e7 | 2.2 | 1.85e7 | 1.77e7 | inactive
CG2865 (GeneID 31217) | DRSC18527 | 3.26e7 | 4.03e7 | – | 1.50e7 | 1.87e7 | inactive
CG2865 (GeneID 31217) | DRSC18528 | 6.81e7 | 2.73e7 | – | 3.56e7 | 1.46e7 | inactive
niki (GeneID 42959) | DRSC14285 | 3.23e7 | 4.21e7 | – | 1.52e7 | 1.78e7 | inactive
mAChR-A (GeneID 37892) | DRSC04702 | 3.98e7 | 5.46e7 | – | 2.11e7 | 2.22e7 | inactive
dUTPase (GeneID 34529) | DRSC01998 | 5.26e7 | – | – | 2.49e7 | – | inactive
CG14566 (GeneID 40421) | DRSC11727 | 3.32e7 | 5.37e7 | – | 1.55e7 | 2.46e7 | inactive
CG11771 (GeneID 42984) | DRSC14379 | 4.56e7 | 4.61e7 | – | 2.03e7 | 2.02e7 | inactive
Dph2 (GeneID 41802) | DRSC16222 | 4.30e7 | 4.56e7 | – | 1.76e7 | 1.99e7 | inactive
CG1889 + CG43386 | DRSC17979 | 3.23e7 | 5.22e7 | – | 1.74e7 | 2.29e7 | inactive
CG13367 (GeneID 31013) | DRSC18485 | 2.55e7 | 4.45e7 | 2.1 | 1.20e7 | 1.88e7 | inactive
CG13367 (GeneID 31013) | DRSC18486 | 3.62e7 | 3.15e7 | 2.3 | 1.59e7 | 1.32e7 | inactive
ZnT86D (GeneID 41342) | DRSC16091 | 3.79e7 | 2.48e7 | – | 1.92e7 | 1.36e7 | inactive
CG2187 (GeneID 43743) | DRSC15425 | 2.67e7 | 4.14e7 | 1.8 | 1.48e7 | 1.71e7 | inactive
